Test results reported in patent US6653533 (PURDUE RESEARCH FOUNDATION, dated 1997).

Target: T1, Bicoid (UniProt P09081 2-160, limits assumed)
T1 construct: Control bait expressed from vector pEG202; also called arbitrary bait Bicoid (in pEG202)
T1 sequence (looked up): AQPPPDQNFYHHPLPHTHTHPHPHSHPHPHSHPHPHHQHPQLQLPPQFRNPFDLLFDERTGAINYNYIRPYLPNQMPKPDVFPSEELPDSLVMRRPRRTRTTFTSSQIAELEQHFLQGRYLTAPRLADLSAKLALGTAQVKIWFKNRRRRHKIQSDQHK
Assay: yeast two-hybrid (LEU2 and lacZ reporters), Bicoid bait in pEG202, prey in pJG4-5
Method: Figure 2: FIG. 2 sets forth results of the Experiment described in Example 1 herein. Briefly, EGY48 yeast cells containing a prey of Pti4, Pti5 or Pti6 (in pJG4–5), and a bait of Pto, pto or Bicoid (in pEG202) were grown on galactose Ura⁻His⁻Trp⁻X-Gal medium. The plates were incubated at 30° C. for three days and photographed. Four independent, representative colonies are shown for each bait/prey combination.
Yeast strains carrying the Pto bait and a prey of Pti4, Pti5 or Pti6 grew in the absence of leucine, indicative of the LEU2 reporter gene activation. When grown on X-Gal plates, these yeast cells were blue as a result of the lacZ reporter gene activation. As determined by the intensity of blue color, the strength of interaction of Pto with these three preys is in the order of Pti6>Pti4>Pti5.

B1: Pti4 (other)
chain: MDQQLPPTNFPVDFPVYRRNSSFSRLIPCLTEKWGDLPLKVDDSEDMVIYGLLKDALSVGWSPFNFTAGEVKSEPREEIESSPEFSPSPAGTTAAPAAETPKRRHYRGVRQRPWGKFAAEIRDPAKNGARVWLGTYETAEEAAIAYDKAAYRMRGSKAHLNFPHRIGLNEPEPFELRRKGRAIQGPASSSGNGSMKRRRKAVQKCDGEMASRSSVMQVGCQIEQLTGVHQL
notes: Tested as a yeast two-hybrid prey expressed from vector pJG4-5; also called prey of Pti4 (in pJG4-5)
B1: no binding.
